This is an account of results in publication PMC8380176.

Chains of the proteins cited; added tags and fusions are not shown.
UniProt Q8VDD5: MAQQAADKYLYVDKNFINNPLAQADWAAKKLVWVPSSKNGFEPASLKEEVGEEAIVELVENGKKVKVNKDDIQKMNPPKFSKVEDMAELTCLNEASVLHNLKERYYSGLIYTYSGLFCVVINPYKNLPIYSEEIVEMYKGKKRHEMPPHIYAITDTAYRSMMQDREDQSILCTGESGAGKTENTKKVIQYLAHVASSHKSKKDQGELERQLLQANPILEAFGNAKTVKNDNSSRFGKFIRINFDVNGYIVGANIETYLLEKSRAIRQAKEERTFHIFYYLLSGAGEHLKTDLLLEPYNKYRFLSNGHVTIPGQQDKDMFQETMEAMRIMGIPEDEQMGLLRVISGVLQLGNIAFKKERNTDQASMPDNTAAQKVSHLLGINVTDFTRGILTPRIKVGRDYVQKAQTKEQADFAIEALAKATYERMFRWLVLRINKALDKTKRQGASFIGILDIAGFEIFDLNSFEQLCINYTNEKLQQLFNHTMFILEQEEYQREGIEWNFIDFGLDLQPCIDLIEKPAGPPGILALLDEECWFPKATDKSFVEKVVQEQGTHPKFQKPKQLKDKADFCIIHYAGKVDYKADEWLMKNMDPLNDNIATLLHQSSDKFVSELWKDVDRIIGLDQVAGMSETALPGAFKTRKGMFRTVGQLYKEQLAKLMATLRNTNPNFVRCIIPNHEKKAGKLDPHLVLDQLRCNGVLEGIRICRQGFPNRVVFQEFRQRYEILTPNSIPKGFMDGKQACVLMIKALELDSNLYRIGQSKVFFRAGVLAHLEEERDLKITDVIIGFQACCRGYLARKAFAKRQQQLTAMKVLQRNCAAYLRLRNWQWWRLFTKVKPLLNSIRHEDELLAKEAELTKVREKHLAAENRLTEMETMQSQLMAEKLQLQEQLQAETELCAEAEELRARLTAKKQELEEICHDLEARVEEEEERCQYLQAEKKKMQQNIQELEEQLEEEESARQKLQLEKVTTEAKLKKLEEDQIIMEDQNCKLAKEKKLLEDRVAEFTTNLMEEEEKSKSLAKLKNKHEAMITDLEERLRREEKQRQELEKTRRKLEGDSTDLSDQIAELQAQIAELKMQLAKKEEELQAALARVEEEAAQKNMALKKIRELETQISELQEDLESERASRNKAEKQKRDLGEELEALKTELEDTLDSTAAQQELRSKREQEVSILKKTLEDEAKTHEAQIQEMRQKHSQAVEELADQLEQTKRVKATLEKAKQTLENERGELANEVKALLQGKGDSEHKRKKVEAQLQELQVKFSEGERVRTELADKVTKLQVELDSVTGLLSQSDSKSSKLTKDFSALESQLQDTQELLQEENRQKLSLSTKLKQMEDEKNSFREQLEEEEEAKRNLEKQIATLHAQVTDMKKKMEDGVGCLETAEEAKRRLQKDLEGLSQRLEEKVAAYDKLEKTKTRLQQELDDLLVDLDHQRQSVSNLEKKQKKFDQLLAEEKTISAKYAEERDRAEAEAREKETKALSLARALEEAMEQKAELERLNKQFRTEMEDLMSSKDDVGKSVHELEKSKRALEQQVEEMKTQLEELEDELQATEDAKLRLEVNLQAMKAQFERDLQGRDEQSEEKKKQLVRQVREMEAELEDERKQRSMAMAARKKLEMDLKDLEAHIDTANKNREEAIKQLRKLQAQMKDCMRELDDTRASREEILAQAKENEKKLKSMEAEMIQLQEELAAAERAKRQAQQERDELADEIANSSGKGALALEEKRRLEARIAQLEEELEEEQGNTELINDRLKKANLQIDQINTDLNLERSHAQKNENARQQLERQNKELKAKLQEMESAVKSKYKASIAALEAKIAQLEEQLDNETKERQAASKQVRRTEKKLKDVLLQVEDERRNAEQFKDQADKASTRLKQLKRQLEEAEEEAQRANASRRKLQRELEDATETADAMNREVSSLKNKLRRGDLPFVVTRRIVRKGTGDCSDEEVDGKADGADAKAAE

Results are given in words; binding and its absence hold for the method and conditions named. In cells and extracts the contact can be indirect. Some entries that bind do so weakly or less than the wild type.

This assay deals with Myosin heavy chain 9 (MYH9) (mouse (endogenous in MLE-12)) (UniProt Q8VDD5). The assay is described as follows: co-IP; cells lysed in RIPA buffer with 1% protease inhibitors; precleared lysate incubated overnight at 4°C with anti-Myh9 or anti-IgG antibody and Protein A sepharose; beads washed 3 times with PBS; Western blot.

B1: osteoclast stimulatory transmembrane protein (OC-STAMP) (protein, UniProt Q9D611 1-498)
chain: MRTIRAATEHLFGLGWKFWRLGICKAVVPLQAAWKAFSQPVPASCNELLTQLLLCVSLASLIAGLAHHWLVSLQLYPLGPPALVTSLCGLFVFLSLGLVPPIRCLFVLSVPTLGSKQGRRLLLSYSAANLAVAVVPNVLGNVRAAGQVLSCVTEGSLESLLNTTYQLRQAARELGPASRAGSRSLTFEVEGKGSAFRLHMHTITQEILEDFSGLEFLARAALGTQRVVTGLFLLGLLGESAWYLHRYLTDLRFDNIYATRQLVRQLAQAGATHLLTSPPPWLLQTAQPKLSREELLSCLLRLGLLALLLVATAVTVASDYGAFLLAQAAVAWAQKLPTVPITLTVKYDASYKVLDFILFVLNQPPVESVFASMQRSFQWELRFTPHDCHLPQAQPPRVTAALAAGALQLLAGATLVLQAYAWRLRHTIAASFFPDQEARRLSHLQARLQRRHNQSDHLNKQPGTMATRESRKPGQGTRTLESQGPQAHDSLGPPYDLE
For B1, the binding entry is recorded as “binds”.
